Results from publication PMC4201560.
No constants are given. Whether binding was seen depends on the method and setting. Binding seen in cells or lysates may run through a third protein.

Key:
Imp1-TAP (S. pombe) = target: T1, Imp1-TAP (S. pombe) (UniProt O94374); test: pull-down; TAP pull-down: total lysates of iron-starved (Dip 250 µM, 3 h) S. pombe php4Δ cells co-expressing GFP-Php4 and a TAP-tagged karyopherin or TAP alone; IgG-Sepharose 6 Fast-Flow beads, 30 to 60 min at 4°C, washed with lysis buffer; bound fraction blotted with anti-GFP, anti-IgG and anti-α-tubulin
T1 sequence: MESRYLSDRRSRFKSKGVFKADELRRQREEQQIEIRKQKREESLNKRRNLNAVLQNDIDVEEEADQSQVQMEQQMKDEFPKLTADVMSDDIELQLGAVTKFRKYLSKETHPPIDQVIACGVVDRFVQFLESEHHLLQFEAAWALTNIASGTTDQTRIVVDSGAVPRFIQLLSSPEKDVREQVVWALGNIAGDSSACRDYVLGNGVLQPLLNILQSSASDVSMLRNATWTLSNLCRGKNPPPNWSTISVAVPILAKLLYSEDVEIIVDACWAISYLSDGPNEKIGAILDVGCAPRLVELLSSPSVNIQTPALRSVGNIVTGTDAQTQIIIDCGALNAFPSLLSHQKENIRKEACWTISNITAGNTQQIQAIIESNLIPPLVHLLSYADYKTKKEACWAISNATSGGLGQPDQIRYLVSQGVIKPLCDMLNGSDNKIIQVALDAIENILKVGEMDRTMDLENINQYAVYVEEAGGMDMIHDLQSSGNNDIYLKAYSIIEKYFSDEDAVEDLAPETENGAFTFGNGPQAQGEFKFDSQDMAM

Sal3-TAP (S. pombe) = target: T2, Sal3-TAP (S. pombe) (UniProt O74476); test: as above
T2 sequence: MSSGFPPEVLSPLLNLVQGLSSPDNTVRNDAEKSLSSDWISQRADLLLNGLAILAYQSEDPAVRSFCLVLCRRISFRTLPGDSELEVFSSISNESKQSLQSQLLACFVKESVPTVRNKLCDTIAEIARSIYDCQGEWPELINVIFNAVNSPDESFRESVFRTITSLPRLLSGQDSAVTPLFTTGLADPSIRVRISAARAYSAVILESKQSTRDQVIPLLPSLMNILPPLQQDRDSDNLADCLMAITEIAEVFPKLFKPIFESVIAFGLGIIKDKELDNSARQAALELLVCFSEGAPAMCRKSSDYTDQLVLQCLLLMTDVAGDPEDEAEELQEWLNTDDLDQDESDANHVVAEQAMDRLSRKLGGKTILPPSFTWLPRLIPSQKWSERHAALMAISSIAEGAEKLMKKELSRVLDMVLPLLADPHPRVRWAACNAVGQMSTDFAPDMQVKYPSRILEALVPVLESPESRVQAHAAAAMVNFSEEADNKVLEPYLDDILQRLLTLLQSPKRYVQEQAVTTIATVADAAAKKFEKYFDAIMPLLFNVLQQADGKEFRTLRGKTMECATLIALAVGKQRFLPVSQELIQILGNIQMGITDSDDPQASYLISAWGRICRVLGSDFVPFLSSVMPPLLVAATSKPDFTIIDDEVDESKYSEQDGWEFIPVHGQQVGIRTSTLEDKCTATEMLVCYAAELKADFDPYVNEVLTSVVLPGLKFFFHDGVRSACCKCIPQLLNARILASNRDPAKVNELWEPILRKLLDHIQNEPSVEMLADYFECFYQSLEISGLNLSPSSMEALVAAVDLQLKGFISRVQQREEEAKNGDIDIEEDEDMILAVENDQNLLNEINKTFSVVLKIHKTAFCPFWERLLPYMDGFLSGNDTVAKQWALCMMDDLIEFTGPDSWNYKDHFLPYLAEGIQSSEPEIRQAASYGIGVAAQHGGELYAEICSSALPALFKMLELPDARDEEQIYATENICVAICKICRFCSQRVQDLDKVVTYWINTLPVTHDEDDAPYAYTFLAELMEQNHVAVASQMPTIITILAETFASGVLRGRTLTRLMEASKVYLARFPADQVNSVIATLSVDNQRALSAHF

Substance: α-tubulin (S. pombe (endogenous in S. pombe cells))
- binding (Imp1-TAP (S. pombe)): no binding
- binding (Sal3-TAP (S. pombe)): no binding
